Data taken from PubChem BioAssay AID1080, deposited by Emory University Molecular Libraries Screening Center (2008).

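A counter-screen in EP4-overexpressing cells measuring cyclic AMP with a time-resolved FRET kit under weak PGE2 stimulation.
Compounds were tested at 20 µM final. A low (about EC15) PGE2 dose was present.
Percent cAMP induction as a fraction of the 1 µM PGE2 response, averaged over three replicates; a higher value means more cAMP.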

Values are in %.
Common to all entries: measured here: EP4 receptor counter-screen.
This is a side read-out of the assay, for part of the compounds, not drawn at random.

structure,setting,cAMP induction (%)
CCOP(=O)(OCC)c1nc(-c2ccc(C)cc2)oc1NCc1ccccc1,percent of 1 uM PGE2 response; plus low (about EC15) PGE2 agonist,-6.717
COC(=O)c1c(NC(=O)c2ccc(Br)s2)sc2c1CCC2,percent of 1 uM PGE2 response; plus low (about EC15) PGE2 agonist,0.9233
CCOC(=O)c1cnc2ccc(OCC)cc2c1N(C)Cc1ccccc1,percent of 1 uM PGE2 response; plus low (about EC15) PGE2 agonist,-1.397
COC(=O)c1cc2ccsc2n1Cc1cccc(F)c1,percent of 1 uM PGE2 response; plus low (about EC15) PGE2 agonist,-1.723
Cc1ccccc1OCc1nc2ccccc2c(=O)n1/N=C/c1ccco1,percent of 1 uM PGE2 response; plus low (about EC15) PGE2 agonist,-4.493
C[C@@H]1CC[C@H]2C(C)(C)C3CC12CC[C@@]3(C)O (stereo partly drawn),percent of 1 uM PGE2 response; plus low (about EC15) PGE2 agonist,-6.997
CCOC(=O)CN(C(=O)CSc1nnc(Cc2ccccc2)n1-c1ccc(C)cc1)c1ccccc1,percent of 1 uM PGE2 response; plus low (about EC15) PGE2 agonist,7.147
COc1ccc(OC(=O)c2cccc([N+](=O)[O-])c2)c(C(=O)/C=C/c2cccs2)c1,percent of 1 uM PGE2 response; plus low (about EC15) PGE2 agonist,-6.343
Cc1cccc(C)c1NC(=O)CSc1nnc(Cn2nnc(-c3ccccc3)n2)n1-c1ccccc1,percent of 1 uM PGE2 response; plus low (about EC15) PGE2 agonist,1.48
CCOC(=O)c1c(NC(=O)CSc2nnc(C)s2)sc2c1CCC(C)C2 (stereo not drawn),percent of 1 uM PGE2 response; plus low (about EC15) PGE2 agonist,4.147
CC1=NN(c2ccc(S(=O)(=O)O)cc2)C(=O)/C1=C\c1ccc(Cl)cc1,percent of 1 uM PGE2 response; plus low (about EC15) PGE2 agonist,-4.713
CCCc1cc(=O)[nH]c(SCC(=O)N2CCC(C(=O)OCC)CC2)n1,percent of 1 uM PGE2 response; plus low (about EC15) PGE2 agonist,-1.83
CC1CCN(c2nc(-c3ccncc3)nc3ccccc23)CC1,percent of 1 uM PGE2 response; plus low (about EC15) PGE2 agonist,3.297
Cn1cc(C2=C(c3ccc(Cl)cc3Cl)C(=O)NC2=O)c2ccccc21,percent of 1 uM PGE2 response; plus low (about EC15) PGE2 agonist,20.47
CCOC(=O)c1c(N)sc(-c2ccccc2)c1C,percent of 1 uM PGE2 response; plus low (about EC15) PGE2 agonist,4.75
CCCCNc1nc(-c2ccccc2)c(C(=O)OCC)cc1C#N,percent of 1 uM PGE2 response; plus low (about EC15) PGE2 agonist,-9.25
O=C(COc1ccc(Br)cc1)Nc1ccc(-c2nnc(-c3ccco3)o2)cc1,percent of 1 uM PGE2 response; plus low (about EC15) PGE2 agonist,-6.93
C/C(=N\N(Cc1ccccc1)c1ccccc1)c1ccncc1,percent of 1 uM PGE2 response; plus low (about EC15) PGE2 agonist,-3.707
COc1ccc(C)cc1-n1c(=O)c2ccccc2c2ccccc2c1=O,percent of 1 uM PGE2 response; plus low (about EC15) PGE2 agonist,-2.427
O=C(O)c1cc(C(=O)O)cc(N2C(=O)c3ccccc3C2=O)c1,percent of 1 uM PGE2 response; plus low (about EC15) PGE2 agonist,5.87
Cc1ccc(C(=O)OCC(=O)Nc2ccccc2Sc2ccccc2)cc1C,percent of 1 uM PGE2 response; plus low (about EC15) PGE2 agonist,-6.77
C=CCSc1nc(N(CC)CC)c2sccc2n1,percent of 1 uM PGE2 response; plus low (about EC15) PGE2 agonist,-12.8

For reference, 2 entries once more:

| structure | setting | cAMP induction (%) |
|---|---|---|
| `O=C(O)c1cc(C(=O)O)cc(N2C(=O)c3ccccc3C2=O)c1` | percent of 1 uM PGE2 response; plus low (about EC15) PGE2 agonist | 5.87 |
| `CCOC(=O)c1c(N)sc(-c2ccccc2)c1C` | percent of 1 uM PGE2 response; plus low (about EC15) PGE2 agonist | 4.75 |